Reference: publication PMC3091842
Results are given in words; binding and its absence hold for the method and conditions named. In cells and extracts the contact can be indirect. Some results given as binding are weak or reduced against the parent protein; the word gives no strength. For some assays here: Sequences can lack the tags named with a protein. Blank lines part the entries; values can stand above or below the molecule they belong to.

Protein sequences, listed by entry. Tags and fused reporters are not part of them.
UniProt Q14999: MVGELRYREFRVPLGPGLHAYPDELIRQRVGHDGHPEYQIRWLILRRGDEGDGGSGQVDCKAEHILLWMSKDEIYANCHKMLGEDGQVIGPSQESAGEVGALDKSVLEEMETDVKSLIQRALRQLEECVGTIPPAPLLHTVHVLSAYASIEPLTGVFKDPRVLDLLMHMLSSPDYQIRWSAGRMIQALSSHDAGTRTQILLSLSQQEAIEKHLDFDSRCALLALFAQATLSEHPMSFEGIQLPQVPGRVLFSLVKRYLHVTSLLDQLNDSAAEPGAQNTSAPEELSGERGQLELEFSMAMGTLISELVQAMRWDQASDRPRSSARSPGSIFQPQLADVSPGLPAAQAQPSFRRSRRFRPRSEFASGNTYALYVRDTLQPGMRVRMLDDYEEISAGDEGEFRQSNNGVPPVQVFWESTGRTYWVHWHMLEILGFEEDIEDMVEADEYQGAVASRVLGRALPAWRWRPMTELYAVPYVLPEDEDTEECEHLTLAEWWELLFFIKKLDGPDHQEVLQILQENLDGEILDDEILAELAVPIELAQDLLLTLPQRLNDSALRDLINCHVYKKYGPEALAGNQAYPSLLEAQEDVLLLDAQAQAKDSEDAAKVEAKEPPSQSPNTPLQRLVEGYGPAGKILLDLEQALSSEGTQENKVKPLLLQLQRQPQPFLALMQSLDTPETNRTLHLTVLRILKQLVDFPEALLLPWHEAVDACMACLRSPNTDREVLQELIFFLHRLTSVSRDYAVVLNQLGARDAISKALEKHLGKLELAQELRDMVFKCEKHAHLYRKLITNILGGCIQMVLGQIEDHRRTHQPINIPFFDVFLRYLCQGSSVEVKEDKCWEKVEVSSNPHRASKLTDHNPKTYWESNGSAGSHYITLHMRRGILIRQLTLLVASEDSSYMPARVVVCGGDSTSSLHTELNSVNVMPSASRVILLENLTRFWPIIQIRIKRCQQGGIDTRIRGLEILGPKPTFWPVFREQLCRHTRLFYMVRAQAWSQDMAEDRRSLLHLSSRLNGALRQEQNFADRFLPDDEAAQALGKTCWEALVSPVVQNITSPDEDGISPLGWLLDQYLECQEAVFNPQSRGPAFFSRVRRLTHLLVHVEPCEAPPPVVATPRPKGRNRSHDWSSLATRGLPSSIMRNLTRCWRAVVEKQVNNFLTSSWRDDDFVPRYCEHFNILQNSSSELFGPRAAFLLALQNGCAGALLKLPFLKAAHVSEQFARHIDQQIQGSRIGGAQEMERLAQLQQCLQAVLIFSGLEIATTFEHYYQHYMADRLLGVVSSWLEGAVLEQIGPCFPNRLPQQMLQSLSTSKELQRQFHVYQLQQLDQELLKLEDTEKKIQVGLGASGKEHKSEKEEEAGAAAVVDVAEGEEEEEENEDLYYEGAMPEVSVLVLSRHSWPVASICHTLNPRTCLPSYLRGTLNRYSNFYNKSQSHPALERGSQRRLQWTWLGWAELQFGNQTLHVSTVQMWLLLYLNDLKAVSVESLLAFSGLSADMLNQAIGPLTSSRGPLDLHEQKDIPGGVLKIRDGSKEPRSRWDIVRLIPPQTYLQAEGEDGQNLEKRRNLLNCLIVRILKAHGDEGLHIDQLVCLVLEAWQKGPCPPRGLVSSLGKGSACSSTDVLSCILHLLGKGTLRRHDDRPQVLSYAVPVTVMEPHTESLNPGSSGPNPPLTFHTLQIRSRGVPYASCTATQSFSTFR
UniProt O75147: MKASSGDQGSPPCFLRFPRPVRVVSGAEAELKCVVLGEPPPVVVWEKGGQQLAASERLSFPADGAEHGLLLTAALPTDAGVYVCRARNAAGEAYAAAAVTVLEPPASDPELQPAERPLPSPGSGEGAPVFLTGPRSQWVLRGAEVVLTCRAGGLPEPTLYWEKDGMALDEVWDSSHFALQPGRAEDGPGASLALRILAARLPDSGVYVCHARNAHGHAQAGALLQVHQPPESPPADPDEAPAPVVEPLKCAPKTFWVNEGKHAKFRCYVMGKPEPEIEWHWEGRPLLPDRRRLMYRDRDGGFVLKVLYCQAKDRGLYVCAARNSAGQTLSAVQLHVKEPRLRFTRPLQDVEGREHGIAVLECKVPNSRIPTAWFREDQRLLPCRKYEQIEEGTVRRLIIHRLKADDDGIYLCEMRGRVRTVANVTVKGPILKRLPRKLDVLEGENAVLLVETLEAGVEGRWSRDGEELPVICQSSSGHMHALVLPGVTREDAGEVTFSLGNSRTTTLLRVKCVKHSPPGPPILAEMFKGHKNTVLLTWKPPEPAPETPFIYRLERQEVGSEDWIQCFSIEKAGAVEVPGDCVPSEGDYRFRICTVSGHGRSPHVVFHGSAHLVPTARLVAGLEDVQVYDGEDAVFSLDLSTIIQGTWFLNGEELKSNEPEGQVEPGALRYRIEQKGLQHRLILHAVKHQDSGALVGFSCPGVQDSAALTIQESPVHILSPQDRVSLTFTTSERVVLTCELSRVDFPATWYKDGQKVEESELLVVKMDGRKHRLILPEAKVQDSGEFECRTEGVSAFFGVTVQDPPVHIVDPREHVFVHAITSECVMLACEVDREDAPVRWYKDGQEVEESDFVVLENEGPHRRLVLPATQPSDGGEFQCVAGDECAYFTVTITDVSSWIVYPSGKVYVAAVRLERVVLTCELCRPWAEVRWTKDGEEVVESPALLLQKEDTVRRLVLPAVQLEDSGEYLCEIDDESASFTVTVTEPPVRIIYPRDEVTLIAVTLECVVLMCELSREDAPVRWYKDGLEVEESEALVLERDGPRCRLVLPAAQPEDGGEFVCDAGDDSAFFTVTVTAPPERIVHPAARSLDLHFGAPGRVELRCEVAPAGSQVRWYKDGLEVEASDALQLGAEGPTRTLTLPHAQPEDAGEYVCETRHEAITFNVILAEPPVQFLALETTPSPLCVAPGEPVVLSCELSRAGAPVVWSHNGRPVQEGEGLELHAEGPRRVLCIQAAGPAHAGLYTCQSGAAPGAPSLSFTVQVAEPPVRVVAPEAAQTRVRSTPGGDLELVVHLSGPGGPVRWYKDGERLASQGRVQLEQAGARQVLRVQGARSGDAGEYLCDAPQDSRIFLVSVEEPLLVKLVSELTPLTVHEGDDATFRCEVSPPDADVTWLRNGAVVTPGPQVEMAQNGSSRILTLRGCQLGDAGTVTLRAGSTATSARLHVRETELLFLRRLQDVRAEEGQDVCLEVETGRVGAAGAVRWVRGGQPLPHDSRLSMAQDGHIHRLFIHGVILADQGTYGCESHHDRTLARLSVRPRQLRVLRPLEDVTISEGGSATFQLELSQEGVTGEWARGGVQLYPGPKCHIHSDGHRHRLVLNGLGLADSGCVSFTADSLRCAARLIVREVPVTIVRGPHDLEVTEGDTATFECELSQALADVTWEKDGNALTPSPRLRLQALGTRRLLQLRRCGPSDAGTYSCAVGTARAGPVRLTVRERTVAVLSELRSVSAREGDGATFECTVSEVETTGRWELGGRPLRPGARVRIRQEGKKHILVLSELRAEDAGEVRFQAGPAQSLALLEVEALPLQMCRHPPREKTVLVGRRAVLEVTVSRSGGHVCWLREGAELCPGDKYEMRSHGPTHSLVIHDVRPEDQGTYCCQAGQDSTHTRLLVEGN
UniProt O35254: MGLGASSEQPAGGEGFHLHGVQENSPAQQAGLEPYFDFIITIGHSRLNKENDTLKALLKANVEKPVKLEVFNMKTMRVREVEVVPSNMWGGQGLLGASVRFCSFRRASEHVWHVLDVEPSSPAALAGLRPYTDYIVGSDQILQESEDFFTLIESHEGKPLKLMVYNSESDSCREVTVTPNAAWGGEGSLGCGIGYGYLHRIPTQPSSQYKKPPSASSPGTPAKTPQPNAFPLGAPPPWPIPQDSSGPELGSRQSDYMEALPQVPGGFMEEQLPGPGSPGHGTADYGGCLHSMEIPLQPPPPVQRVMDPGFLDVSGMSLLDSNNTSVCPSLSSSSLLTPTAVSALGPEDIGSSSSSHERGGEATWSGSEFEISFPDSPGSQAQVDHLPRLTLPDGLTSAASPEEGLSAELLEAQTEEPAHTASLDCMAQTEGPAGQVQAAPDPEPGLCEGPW
UniProt Q8VE73: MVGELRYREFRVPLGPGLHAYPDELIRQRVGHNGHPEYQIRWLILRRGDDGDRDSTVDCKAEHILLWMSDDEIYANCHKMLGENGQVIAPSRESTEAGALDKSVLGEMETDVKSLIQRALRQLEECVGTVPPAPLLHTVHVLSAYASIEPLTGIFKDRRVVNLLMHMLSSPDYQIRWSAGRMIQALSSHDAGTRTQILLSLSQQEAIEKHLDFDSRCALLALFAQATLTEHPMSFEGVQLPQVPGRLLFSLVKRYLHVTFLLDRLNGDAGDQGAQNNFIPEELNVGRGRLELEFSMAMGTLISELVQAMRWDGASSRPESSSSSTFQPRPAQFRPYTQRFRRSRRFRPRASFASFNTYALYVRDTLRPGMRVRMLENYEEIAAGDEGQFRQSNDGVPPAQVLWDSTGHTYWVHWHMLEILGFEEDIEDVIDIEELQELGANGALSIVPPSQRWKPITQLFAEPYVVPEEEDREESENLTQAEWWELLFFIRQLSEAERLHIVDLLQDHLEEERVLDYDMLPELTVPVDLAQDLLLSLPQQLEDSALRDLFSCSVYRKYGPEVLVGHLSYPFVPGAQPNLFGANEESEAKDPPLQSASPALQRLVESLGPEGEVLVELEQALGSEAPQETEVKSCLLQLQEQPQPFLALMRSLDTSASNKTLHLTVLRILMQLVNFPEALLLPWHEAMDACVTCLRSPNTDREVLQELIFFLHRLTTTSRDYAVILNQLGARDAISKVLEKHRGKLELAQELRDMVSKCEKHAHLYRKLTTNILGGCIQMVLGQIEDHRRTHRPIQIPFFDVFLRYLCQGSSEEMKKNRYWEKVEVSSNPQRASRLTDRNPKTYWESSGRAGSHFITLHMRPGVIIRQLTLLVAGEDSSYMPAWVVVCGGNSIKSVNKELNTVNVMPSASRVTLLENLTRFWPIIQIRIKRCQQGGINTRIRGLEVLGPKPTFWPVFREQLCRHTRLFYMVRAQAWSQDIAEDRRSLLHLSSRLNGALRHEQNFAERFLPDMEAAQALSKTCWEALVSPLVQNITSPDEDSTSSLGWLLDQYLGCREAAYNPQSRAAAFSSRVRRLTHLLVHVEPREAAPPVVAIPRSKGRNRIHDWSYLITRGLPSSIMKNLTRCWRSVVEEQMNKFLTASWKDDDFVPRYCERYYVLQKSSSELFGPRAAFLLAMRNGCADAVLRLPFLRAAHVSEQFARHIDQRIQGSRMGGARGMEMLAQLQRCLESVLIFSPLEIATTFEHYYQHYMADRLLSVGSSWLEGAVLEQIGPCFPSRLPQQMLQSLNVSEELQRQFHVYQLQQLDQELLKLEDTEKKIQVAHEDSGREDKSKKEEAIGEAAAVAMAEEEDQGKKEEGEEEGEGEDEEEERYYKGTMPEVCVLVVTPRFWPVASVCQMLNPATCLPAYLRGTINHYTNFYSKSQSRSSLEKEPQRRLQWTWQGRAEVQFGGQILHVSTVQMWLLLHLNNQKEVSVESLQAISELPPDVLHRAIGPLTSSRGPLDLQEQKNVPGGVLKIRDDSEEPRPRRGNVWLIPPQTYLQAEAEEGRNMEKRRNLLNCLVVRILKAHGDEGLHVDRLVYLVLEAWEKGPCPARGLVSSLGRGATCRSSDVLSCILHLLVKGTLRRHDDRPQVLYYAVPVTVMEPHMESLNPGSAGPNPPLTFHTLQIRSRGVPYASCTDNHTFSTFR

How the values were obtained:
[1] = target: T1, Fbxw8 (endogenous, Neuro2A) (mouse (endogenous in Neuro2A)) (UniProt Q8BIA4); experiment: co-IP; lysates of Neuro2A cells immunoprecipitated with the Fbxw8 antibody or pre-immune serum, blotted with Cul7 and Fbxw8 antibodies; endogenous proteins
T1 sequence: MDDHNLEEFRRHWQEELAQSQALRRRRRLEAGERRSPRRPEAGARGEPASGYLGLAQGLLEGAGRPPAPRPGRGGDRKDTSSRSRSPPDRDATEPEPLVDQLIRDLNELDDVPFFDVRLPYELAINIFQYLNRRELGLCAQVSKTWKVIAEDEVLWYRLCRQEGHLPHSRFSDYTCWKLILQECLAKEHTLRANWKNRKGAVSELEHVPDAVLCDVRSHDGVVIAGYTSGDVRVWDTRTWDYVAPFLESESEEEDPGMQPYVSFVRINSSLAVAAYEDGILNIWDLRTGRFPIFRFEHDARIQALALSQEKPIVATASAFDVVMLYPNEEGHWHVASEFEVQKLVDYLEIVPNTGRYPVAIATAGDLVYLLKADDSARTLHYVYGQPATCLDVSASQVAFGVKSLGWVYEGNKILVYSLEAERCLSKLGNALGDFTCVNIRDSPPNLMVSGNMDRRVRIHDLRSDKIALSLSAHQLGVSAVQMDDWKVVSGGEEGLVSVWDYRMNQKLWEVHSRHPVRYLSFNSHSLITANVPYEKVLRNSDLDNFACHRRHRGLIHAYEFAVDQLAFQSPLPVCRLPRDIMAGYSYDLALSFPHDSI

Flag-Fbxw8 (human) = target: T2, Flag-Fbxw8 (human) (UniProt Q8N3Y1); experiment: co-IP; lysates of 293T cells transfected with Flag-Fbxw8 and Grasp65-GFP, its mutants or Grasp55-GFP, immunoprecipitated with the Flag antibody (Figure 7F) or the GFP antibody (Figures 7G, S13A); 1% Triton X-100 lysis buffer
T2 sequence: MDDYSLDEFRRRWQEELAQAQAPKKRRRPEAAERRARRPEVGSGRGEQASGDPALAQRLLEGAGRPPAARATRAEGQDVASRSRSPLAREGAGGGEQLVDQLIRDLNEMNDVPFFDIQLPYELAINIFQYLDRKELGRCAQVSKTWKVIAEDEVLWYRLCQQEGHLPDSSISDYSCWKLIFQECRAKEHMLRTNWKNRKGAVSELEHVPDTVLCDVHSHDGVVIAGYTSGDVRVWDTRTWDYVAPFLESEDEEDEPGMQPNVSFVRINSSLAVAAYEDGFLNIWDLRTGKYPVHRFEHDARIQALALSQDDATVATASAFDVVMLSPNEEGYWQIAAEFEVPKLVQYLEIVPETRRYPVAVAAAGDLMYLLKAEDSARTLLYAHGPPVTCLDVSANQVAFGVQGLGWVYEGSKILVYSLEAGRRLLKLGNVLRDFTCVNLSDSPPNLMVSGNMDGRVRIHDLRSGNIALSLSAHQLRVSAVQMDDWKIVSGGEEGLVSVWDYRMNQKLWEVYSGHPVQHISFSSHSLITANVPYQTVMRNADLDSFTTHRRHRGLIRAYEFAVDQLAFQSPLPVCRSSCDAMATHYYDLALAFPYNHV

full-length Cul7-HA = full-length Cul7-HA (UniProt Q14999); experiment: co-IP; lysates of 293T cells transfected with V5-OBSL1 and Cul7-HA (full length or deletion mutants), immunoprecipitated with V5 or HA antibodies, blotted with V5 and HA antibodies; 1% Triton X-100, 150 mM NaCl, 50 mM Tris pH 7.5
[2] = target: V5-OBSL1 (expressed in 293T cells) (UniProt O75147); experiment: as above
[3] = target: Grasp65 (endogenous, cortical neurons) (rat (endogenous in cortical neurons)) (UniProt O35254); experiment: co-IP; lysates of cortical neurons immunoprecipitated with the Grasp65 antibody or pre-immune serum, blotted with Grasp65 and Fbxw8 antibodies; endogenous proteins

- binding [1]: binds
Molecule: Cul7 (endogenous, Neuro2A) (from UniProt Q8VE73 1-1689)

- binding (Flag-Fbxw8 (human)): binds
Molecule: Grasp65-GFP (from UniProt O35254 1-451)

- binding (full-length Cul7-HA): binds
Molecule: V5-OBSL1 (expressed in 293T cells) (from UniProt O75147 1-1896)

- binding [2]: binds
Molecule: full-length Cul7-HA (from UniProt Q14999 1-1698)

- binding [3]: binds
B1: Fbxw8 (endogenous, cortical neurons) (protein, UniProt P0DL28 1-596)
chain: MEDHNLEEFRQRWQEELAHSQVLRRRRRLEAGERRPRRPEAGARGEPASGYLGLAQGLLEGAGRPPAPRPGRTDRKDVSSRSRSPPDRDAAEPEPLVDQLIRDLNEMDDVPFFDVHLPYELAINIFQYLNRRELGLCAQVSKTWKVIAEDEVLWYRLCRQEGHLPHSRFSDYTCWKLILQECLAPVHLIRPSWMNRKGAVSELEHVPDAVLCDVRSHDGVVIAGYTSGEVRVWDTRTWDYVAPFLESESEEEDPGMQPYVSFVRINSSLAVAAYEDGILNVWDLRTGRFPIFRFEHDARIQALALSQEKPVVATASAFDVVMLYPNEEGNWHVASEFEVQKLVDYLEIVPNTGRYPVAIATAGDLVYLLKAEDSARTLHYVYGQPATCLDVSASQVAFGVKSLGWVYEGNKILVYSLEAERCLSKLGNALGDFTCVNIRDSPPNLMVSGNMDRRVRLHDLRTDKIALSLSAHQLGVSAVQMDDWKIVSGGEEGLVSVWDYRMNQKLWEVHSRHPVRYISFNSHSLITANVPYEKVLRNSDLDNFACHRRHRGLIHAYEFAVDQLAFQSPLPICRLPRDTVAGYSYDLALSFPYDSI
